Binding data for one molecule are collected here from publication PMC6735364.

By UniProt entry, the sequences of proteins in these tests, tags left out.
UniProt Q00987: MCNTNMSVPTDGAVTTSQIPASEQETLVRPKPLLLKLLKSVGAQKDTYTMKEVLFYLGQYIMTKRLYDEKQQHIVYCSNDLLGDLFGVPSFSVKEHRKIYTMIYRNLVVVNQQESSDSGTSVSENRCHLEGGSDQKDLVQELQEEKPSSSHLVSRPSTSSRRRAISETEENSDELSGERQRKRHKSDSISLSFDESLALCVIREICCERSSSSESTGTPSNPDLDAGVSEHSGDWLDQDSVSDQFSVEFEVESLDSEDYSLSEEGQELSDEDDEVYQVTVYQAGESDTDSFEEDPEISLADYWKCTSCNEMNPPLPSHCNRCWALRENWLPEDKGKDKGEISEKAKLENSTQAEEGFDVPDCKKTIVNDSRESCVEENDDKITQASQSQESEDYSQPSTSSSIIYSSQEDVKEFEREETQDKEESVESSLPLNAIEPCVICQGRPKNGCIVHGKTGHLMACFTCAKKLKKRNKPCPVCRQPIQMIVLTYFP

Results are given in words; binding and its absence hold for the method and conditions named. Binding seen in cells or lysates may run through a third protein. Some entries that bind do so weakly or less than the wild type.

The experiment deals with mouse double minute 2 (MDM2) protein (human (endogenous in GF-1712 and U87)) (UniProt Q00987). Briefly: co-IP; GF-1712 and U87 cells in RIPA lysis buffer; incubation with anti-MTBP or anti-MDM2 overnight at 4°C, protein-A/G PLUS-Agarose beads, western blot; anti-IgG as negative control.

B1: MDM2 binding protein (MTBP) (protein, UniProt Q96DY7 1-904)
chain: MDRYLLLVIWGEGKFPSAASREAEHGPEVSSGEGTENQPDFTAANVYHLLKRSISASINPEDSTFPACSVGGIPGSKKWFFAVQAIYGFYQFCSSDWQEIHFDTEKDKIEDVLQTNIEECLGAVECFEEEDSNSRESLSLADLYEEAAENLHQLSDKLPAPGRAMVDIILLLSDKDPPKLKDYLPTVGALKHLREWYSAKITIAGNHCEINCQKIAEYLSANVVSLEDLRNVIDSKELWRGKIQIWERKFGFEISFPEFCLKGVTLKNFSTSNLNTDFLAKKIIPSKDKNILPKVFHYYGPALEFVQMIKLSDLPSCYMSDIEFELGLTNSTKQNSVLLLEQISSLCSKVGALFVLPCTISNILIPPPNQLSSRKWKEYIAKKPKTISVPDVEVKGECSSYYLLLQGNGNRRCKATLIHSANQINGSFALNLIHGKMKTKTEEAKLSFPFDLLSLPHFSGEQIVQREKQLANVQVLALEECLKRRKLAKQPETVSVAELKSLLVLTRKHFLDYFDAVIPKMILRKMDKIKTFNILNDFSPVEPNSSSLMETNPLEWPERHVLQNLETFEKTKQKMRTGSLPHSSEQLLGHKEGPRDSITLLDAKELLKYFTSDGLPIGDLQPLPIQKGEKTFVLTPELSPGKLQVLPFEKASVCHYHGIEYCLDDRKALERDGGFSELQSRLIRYETQTTCTRESFPVPTVLSPLPSPVVSSDPGSVPDGEVLQNELRTEVSRLKRRSKDLNCLYPRKRLVKSESSESLLSQTTGNSNHYHHHVTSRKPQTERSLPVTCPLVPIPSCETPKLATKTSSGQKSMHESKTSRQIKESRSQKHTRILKEVVTETLKKHSITETHECFTACSQRLFEISKFYLKDLKTSRGLFEEMKKTANNNAVQVIDWVLEKTSKK
Regarding B1, the binding result is listed as “binds”.
